Measurements: patent US11975048B2 (NOVEL PHARMA INC., priority 2019, dated 2024)
For part of these data: Strings that start with PEPTIDE1 are HELM notation: dots part the residues, brackets hold end groups and non-standard residues.

Assays:
[1] = peptide made by a vendor (peptide synthesis; Fmoc-Pro-trityl resin; DIC/HOBt); conditions: whole synthesis, 230 nm, sodium salt or acetate
peptide made by a vendor = conditions: whole synthesis, sodium salt or acetate

Row | Substance | final HPLC purity [1] [%] | final HPLC purity ([1]; run 1) [%] | final HPLC purity (peptide made by a vendor) [%]
1 | Arachidic acid-Glu-His-Trp-Ser-Tyr-D-Leu-Leu-Arg-Pro-NHEt (EHWSYLLRP; N-terminal arachidic acid; D-residues; C-terminal NHEt; GnRH analogue; SITE (1)..(1) Glu in position 1 was modified with Arachidic acid.; PEPTIDE (1)..(9) The petide was salificated with acetate salt.; SITE (6)..(6) Leu in position 6 is D-Leu.; SITE (9)..(9) C-terminus of the peptide was modified as NHEt(des-Gly).) | 98.9 |  | 
2 | PEPTIDE1{[Pal16].Q.H.W.S.Y.[dL].L.R.P.[NHEt]}$$$$V2.0 [P4] |  | 98.3 | 
3 | Lauric acid-Glu-His-Trp-Ser-Tyr-D-Leu-Leu-Arg-Pro-NHEt (EHWSYLLRP; N-terminal lauric acid; D-residues; C-terminal NHEt; GnRH analogue; SITE (1)..(1) Glu in position 1 was modified with Lauric acid.; PEPTIDE (1)..(9) The petide was salificated with acetate salt.; SITE (6)..(6) Leu in position 6 is D-Leu.; SITE (9)..(9) C-terminus of the peptide was modified as NHEt(des-Gly).) |  |  | 98.4
4 | Lauric acid-Gln-His-Trp-Ser-Tyr-D-Leu-Leu-Arg-Pro-NHEt (QHWSYLLRP; N-terminal lauric acid; D-residues; C-terminal ethylamide; GnRH analogue; SITE (1)..(1) Gln in position 1 was modified with Lauric acid.; PEPTIDE (1)..(9) The petide was salificated with acetate salt.; SITE (6)..(6) Leu in position 6 is D-Leu.; SITE (9)..(9) C-terminus of the peptide was modified as NHEt(des-Gly).) |  |  | 99.0
5 | PEPTIDE1{[Pal16].Q.H.W.S.Y.[dL].L.R.P.[NHEt]}$$$$V2.0 [P2] |  | 98.2 | 
6 | Arachidic acid-Gln-His-Trp-Ser-Tyr-D-Leu-Leu-Arg-Pro-NHEt (QHWSYLLRP; N-terminal arachidic acid; D-residues; C-terminal NHEt; GnRH analogue; SITE (1)..(1) Gln in position 1 was modified with Arachidic acid.; PEPTIDE (1)..(9) The petide was salificated with acetate salt.; SITE (6)..(6) Leu in position 6 is D-Leu.; SITE (9)..(9) C-terminus of the peptide was modified as NHEt(des-Gly).) | 98.8 |  | 
